Consider two substances from publication PMC4496374.

Protein sequences, listed by entry. Tags and fused reporters are not part of them.
UniProt Q13535: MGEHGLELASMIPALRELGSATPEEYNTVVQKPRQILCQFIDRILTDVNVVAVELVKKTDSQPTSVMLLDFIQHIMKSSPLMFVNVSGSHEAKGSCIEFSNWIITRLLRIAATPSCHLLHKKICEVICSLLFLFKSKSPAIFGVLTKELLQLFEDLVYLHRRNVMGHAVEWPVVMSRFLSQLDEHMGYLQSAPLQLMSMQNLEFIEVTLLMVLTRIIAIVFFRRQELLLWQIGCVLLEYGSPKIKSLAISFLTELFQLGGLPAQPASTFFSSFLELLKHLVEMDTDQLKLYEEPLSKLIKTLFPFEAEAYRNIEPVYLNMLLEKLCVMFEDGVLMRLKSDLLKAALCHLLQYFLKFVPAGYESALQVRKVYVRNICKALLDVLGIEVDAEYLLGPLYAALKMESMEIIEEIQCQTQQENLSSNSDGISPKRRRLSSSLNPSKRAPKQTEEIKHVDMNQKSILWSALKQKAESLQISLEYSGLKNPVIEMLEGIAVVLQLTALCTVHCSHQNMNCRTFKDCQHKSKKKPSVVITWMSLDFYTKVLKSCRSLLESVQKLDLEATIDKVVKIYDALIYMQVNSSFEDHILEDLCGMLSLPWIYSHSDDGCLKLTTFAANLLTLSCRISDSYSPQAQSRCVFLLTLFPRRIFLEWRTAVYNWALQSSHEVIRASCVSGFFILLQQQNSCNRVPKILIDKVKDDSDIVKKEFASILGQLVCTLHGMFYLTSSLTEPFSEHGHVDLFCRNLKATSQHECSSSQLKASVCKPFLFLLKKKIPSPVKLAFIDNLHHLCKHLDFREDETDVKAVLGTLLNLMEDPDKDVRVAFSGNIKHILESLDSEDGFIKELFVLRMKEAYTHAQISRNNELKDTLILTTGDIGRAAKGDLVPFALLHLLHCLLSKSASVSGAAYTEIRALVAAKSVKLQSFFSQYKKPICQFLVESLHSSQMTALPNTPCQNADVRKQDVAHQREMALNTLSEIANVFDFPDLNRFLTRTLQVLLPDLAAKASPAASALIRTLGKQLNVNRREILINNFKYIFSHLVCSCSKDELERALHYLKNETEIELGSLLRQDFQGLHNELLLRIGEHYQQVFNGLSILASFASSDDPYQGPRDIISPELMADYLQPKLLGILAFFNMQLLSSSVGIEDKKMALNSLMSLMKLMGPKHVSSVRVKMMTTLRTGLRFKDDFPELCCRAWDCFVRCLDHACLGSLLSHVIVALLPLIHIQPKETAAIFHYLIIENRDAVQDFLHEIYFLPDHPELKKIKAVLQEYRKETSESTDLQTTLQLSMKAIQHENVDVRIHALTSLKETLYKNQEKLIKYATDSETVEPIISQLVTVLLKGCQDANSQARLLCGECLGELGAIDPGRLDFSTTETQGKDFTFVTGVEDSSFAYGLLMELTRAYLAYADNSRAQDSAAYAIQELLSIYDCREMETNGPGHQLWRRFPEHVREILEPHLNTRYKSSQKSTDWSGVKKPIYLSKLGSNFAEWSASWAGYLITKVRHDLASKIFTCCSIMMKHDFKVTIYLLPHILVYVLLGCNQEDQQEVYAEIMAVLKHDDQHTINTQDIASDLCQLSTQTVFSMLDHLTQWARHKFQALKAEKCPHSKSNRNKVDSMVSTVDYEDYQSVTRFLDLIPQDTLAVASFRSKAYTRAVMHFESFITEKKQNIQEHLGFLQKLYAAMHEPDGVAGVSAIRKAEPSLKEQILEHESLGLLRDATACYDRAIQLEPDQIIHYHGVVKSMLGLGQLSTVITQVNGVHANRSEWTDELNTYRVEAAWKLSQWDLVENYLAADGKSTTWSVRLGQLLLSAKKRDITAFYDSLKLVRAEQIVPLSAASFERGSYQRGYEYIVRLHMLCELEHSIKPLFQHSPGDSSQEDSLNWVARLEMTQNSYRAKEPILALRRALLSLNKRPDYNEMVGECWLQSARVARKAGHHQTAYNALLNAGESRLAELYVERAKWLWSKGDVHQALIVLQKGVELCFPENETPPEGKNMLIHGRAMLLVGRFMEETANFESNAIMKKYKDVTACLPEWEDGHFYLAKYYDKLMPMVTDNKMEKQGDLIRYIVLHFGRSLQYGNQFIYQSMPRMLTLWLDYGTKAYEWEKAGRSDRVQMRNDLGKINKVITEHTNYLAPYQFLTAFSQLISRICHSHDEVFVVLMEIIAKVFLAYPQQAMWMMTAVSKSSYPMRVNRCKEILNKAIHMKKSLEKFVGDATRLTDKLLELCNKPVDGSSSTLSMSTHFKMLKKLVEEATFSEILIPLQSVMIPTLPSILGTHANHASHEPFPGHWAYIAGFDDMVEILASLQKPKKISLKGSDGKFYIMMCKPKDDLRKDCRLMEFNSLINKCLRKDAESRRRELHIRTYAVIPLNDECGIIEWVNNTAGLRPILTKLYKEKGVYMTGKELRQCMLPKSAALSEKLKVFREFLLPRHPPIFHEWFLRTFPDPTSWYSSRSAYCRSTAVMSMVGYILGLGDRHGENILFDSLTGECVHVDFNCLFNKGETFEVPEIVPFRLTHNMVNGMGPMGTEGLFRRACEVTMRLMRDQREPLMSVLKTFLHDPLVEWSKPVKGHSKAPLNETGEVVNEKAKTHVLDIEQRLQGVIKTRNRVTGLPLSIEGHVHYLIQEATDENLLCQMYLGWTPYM

Results are given in words; binding and its absence hold for the method and conditions named. In cells and extracts the contact can be indirect. Some entries that bind do so weakly or less than the wild type. Tags and fused reporters may be left off the sequences shown.

Assay [1] concerns the target T1, GST-tagged C-terminal fragment of INPP4B (aa460-aa924) (UniProt O15327).
T1 sequence: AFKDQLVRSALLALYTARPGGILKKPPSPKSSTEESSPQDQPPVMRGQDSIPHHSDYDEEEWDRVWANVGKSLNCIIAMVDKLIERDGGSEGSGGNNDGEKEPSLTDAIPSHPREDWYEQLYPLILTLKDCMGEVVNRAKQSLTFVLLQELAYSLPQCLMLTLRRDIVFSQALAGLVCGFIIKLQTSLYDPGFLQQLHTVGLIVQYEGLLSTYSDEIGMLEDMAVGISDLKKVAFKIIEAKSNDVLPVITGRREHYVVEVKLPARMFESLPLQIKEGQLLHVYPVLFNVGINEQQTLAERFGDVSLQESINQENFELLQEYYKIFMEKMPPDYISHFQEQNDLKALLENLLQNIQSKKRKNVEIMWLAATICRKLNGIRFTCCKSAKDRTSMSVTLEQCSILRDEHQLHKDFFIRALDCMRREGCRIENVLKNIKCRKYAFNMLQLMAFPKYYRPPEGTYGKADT
Put plainly: pull-down; bacterially expressed GST-tagged INPP4B fragments as bait; lysates of unchallenged 293T cells overexpressing Flag-tagged ATR or BRCA1; immunoblot; input 1% of lysate; only the target purified.

The target in assay [2] is T2, GST-tagged N-terminal fragment of INPP4B (aa1-aa460) (UniProt O15327).
T2 sequence: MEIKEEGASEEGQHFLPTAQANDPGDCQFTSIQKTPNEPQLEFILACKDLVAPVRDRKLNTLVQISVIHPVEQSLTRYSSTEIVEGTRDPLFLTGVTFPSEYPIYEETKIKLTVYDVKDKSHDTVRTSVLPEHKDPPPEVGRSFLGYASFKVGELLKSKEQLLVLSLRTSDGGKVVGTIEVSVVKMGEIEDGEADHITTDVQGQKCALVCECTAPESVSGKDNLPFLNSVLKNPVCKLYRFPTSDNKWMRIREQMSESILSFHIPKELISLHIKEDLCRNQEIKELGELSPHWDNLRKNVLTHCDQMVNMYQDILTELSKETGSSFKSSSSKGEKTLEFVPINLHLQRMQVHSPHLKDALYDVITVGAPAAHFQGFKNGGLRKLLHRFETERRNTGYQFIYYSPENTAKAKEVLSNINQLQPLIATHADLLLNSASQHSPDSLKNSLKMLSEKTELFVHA
The assay is described as above.

Assay [3] deals with T3, GST-tagged middle fragment of INPP4B (aa200-aa760) (UniProt O15327).
T3 sequence: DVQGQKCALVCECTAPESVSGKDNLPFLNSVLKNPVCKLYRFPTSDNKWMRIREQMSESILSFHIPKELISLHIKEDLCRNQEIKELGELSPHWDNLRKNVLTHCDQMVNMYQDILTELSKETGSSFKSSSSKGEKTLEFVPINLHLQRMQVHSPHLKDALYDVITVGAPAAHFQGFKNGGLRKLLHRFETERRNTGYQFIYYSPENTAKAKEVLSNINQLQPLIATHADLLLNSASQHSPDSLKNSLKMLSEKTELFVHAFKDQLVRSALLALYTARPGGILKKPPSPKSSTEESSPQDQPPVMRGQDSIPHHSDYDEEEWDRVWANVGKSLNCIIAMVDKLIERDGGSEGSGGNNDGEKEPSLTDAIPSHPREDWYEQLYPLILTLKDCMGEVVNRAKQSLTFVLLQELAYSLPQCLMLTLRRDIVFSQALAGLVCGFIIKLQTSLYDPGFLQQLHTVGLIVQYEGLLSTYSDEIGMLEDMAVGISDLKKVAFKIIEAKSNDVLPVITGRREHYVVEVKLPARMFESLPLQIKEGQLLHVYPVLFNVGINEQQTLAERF
Described as above.

Assay [4] addresses T4, Flag-tagged INPP4B (inositol polyphosphate 4-phosphatase type II) (UniProt O15327).
T4 sequence: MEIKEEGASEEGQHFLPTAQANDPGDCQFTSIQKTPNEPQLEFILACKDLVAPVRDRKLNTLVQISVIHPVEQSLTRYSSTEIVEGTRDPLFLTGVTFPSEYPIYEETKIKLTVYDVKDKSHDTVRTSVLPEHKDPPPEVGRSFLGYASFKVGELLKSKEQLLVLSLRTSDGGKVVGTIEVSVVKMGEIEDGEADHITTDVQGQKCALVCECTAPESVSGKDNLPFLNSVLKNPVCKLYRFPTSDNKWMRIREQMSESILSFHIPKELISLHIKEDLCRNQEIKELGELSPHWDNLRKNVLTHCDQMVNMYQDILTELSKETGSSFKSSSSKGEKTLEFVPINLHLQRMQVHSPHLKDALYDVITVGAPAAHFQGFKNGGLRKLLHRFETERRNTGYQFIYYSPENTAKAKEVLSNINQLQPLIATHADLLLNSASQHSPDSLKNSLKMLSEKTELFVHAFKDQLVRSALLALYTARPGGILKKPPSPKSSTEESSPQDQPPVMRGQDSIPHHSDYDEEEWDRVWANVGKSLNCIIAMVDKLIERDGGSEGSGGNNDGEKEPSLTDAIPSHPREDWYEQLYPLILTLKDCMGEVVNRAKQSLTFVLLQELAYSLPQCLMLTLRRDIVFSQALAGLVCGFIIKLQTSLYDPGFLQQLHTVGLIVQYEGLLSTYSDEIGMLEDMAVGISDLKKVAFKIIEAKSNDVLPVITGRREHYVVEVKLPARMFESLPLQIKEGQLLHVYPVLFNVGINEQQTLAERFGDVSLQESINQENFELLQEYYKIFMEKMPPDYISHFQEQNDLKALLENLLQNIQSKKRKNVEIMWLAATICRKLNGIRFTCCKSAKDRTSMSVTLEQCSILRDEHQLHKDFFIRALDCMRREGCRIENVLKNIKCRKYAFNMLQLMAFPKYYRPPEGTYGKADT
Put plainly: co-IP; 293T cells transfected with Flag-INPP4B or empty Flag vector, lysed 48 h after transfection; lysates incubated with M2 (anti-FLAG) beads, washed in TBS-T and TBS; western blot.

In the case of “Flag-tagged ATR (from UniProt Q13535 1-2644)”, the binding entry in assay [1] is “no binding”; in assay [2], “binds”; in assay [3], “binds”.
Regarding ATR (from UniProt Q13535 1-2644), the binding entry in assay [4] is reported as “binds”.
